PubChem BioAssay AID1259425 – University of Nebraska Medical Center, 2018
Assay: 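Seek colon cancer weak points whose silencing resembles KSR1 loss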 (primary screen). Cells: HCT116 human colon cancer cells. Knock-down reagent: siRNA pool against human genes, 50 nM siRNA. Read-out: 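mRNA of six signature genes measured together by branched-DNA assay after 50 nM siRNA pool, blank removed, divided by geometric mean of two housekeeping genes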. Scale: BNIP3L mRNA: higher = more BNIP3L transcript after knockdown; NDRG1 mRNA: higher = more NDRG1 transcript after knockdown.
The deposit covers about 14,000 reagents; below is a random part of them. A reagent listed more than once was tested more than once; the source does not tell the runs apart. Further read-outs or replicates are left out here. Not stated in the record: the time to read-out.

| gene | BNIP3L mRNA, set 1 | NDRG1 mRNA, set 1 |
| --- | --- | --- |
| S1PR5 | 0.11 | 0.131 |
| GLIPR1 | 0.131 | 0.0621 |
| SLC9A6 | 0.14 | 0.346 |
| COG3 | 0.209 | 0.401 |
| TRIM55 | 0.152 | 0.537 |
| RDH8 | 0.0851 | 0.113 |
| TBC1D22A | 0.0958 | 0.215 |
| WDPCP | 0.0877 | 0.295 |
| PIPOX | 0.121 | 0.189 |
| SAE1 | 0.117 | 0.122 |
| AKAP10 | 0.0627 | 0.176 |
| PAX4 | 0.0735 | 0.0667 |
| DHRS2 | 0.208 | 0.246 |
| HSAJ2425 (retired record) | 0.0808 | 0.121 |
| NFYA | 0.214 | 0.132 |
| RGL1 | 0.0772 | 0.12 |
| HNRNPU | 0.097 | 0.213 |
| MAST3 | 0.0655 | 0.454 |
| FAM131B | 0.136 | 0.215 |
| MARK2 | 0.102 | 0.28 |
| RPS15 | 0.058 | 0.238 |
| TIMELESS | 0.0899 | 0.0632 |
| ACSL6 | 0.145 | 0.263 |
| ACSL6 | 0.102 | 0.198 |
| GJB6 | 0.0997 | 0.112 |
| CXADR | 0.0815 | 0.0951 |
| CRB1 | 0.183 | 0.262 |
| GRIN3A | 0.127 | 0.206 |
| NALF2 | 0.126 | 0.114 |
| RAD51D | 0.14 | 0.5 |
| MYOD1 | 0.114 | 0.376 |
| CR1L | 0.0576 | 0.179 |
| BCOR | 0.176 | 0.258 |
| HUWE1 | 0.0782 | 0.183 |
| ARHGEF6 | 0.0768 | 0.14 |
| PMS2P2 | 0.102 | 0.813 |
| GABRR1 | 0.153 | 2.15 |
| RABGEF1 | 0.104 | 0.166 |
| EIF1B | 0.0959 | 0.208 |
| SNX5 | 0.11 | 0.208 |
| SYNJ1 | 0.241 | 0.469 |
| ADRA2B | 0.354 | 0.387 |
| SRSF7 | 0.355 | 0.222 |
| DEPDC1 | 0.169 | 0.432 |
| NAPA | 1.85 | 1.79 |
| SETD1A | 0.0811 | 0.135 |
| DMAC2L | 0.0735 | 0.16 |
| KMT2B | 0.0531 | 0.41 |
| SIGLEC5 | 0.158 | 0.216 |
| SACM1L | 0.126 | 0.29 |
| CGB1 | 0.0691 | 0.0775 |
| GFRA2 | 0.172 | 0.335 |
| POGLUT2 | 0.1 | 0.0611 |
| SANBR | 0.132 | 0.21 |
| SCYL2 | 0.0948 | 0.193 |
| ABHD14A | 0.107 | 0.141 |
| FTHL17 | 0.151 | 0.382 |
| ZNF256 | 0.0916 | 0.135 |
| DHX9 | 0.12 | 0.155 |
| PKN1 | 0.125 | 0.19 |
| DBNDD2 | 0.1 | 0.337 |
| ACBD4 | 0.0929 | 0.148 |
| EIF5A | 0.0908 | 0.151 |
